# Source: PubChem BioAssay AID540256 (National Center for Advancing Translational Sciences (NCATS), 2011)
# Hit rate of the full screen: of about 300,000 compounds, about 3,700 (1.2%) were called active. Inconclusive results, whose numbers are uncertain, are shown with a selection of clear calls. Calls come from the whole dose curve; tested in HEK293 cells. A potency beside an inconclusive call is a rough fit, not a confirmed value.
# Assay: qHTS for Inhibitors of binding or entry into cells for Lassa Virus; note: nearly all actives have a fitted effect of over 50% in size
# Settings: Lassa virus pseudotype entry inhibition, cell reporter; activity change, negative = inhibition: at 37.9 µM (top of the series) unless noted
# % is set by controls: 0 for no effect and ±100 for the full control effect; potency is the fitted concentration of half-maximal effect.
SMILES,"activity change, negative = inhibition",Potency
CC(C)(C)NC(=O)c1ccccc1-c1nc(-c2ccccc2Cl)no1,inactive: 5.18%,–
COc1ccc2cc3cc(C(=O)NCc4ccco4)oc3nc2c1,–,"inconclusive: 14.6 µM [inhibitor, partial curve, poor fit]"
CSCCC(NC(=O)c1ccc(Cl)cc1)C(=O)OCC(=O)N1CCCC1=O (stereo unspecified),–,"inconclusive: 3.16 µM [activator, single point]"
Cc1cc(Cl)ccc1NC(=O)CCC(=O)N/N=C/c1cc([N+](=O)[O-])ccc1O,–,"inconclusive: 17.8 µM [inhibitor, partial curve, poor fit]"
O=C(NCc1ccc(F)cc1)C1CCCN(C(=O)Nc2ccc(F)cc2)C1 (stereo unspecified),–,"inconclusive: 10 µM [inhibitor, partial curve, poor fit]"
Cc1cccc(N2CCN(C(=O)CCCn3c(=S)[nH]c4cc5c(cc4c3=O)OCO5)CC2)c1C,–,"inconclusive: 4.47 µM [inhibitor, partial curve, poor fit]"
Cn1ccc(C(=O)OCC(=O)Nc2ccccc2Cl)n1,inactive: 28.5% [at 46.1 µM],–
CCOc1ccc(/C=N/NC(=O)C(O)c2ccccc2)c(O)c1 (stereo unspecified),–,"inconclusive: 35.5 µM [inhibitor, single point]"
Cc1ccc(CNC(=O)CCS(=O)(=O)c2ccc(Br)cc2)cc1,inactive: 10.9% [at 46.1 µM],–
CCOCCCNC(=O)c1ccc2c(=O)n(Cc3ccc4c(c3)OCO4)c(=S)[nH]c2c1,–,"inconclusive: 35.5 µM [inhibitor, partial curve, poor fit]"
Cc1ccc(CC(=O)NCc2nc(-c3ccccc3)no2)cc1,inactive: -3.75% [at 46.1 µM],–
O=C(NCCc1ccccc1Cl)c1cc2ccccn2n1,–,"inconclusive: 3.16 µM [activator, single point]"
COc1ccc(/C=N/NC(=O)CSCc2ccc([N+](=O)[O-])cc2)cc1OC,–,"inconclusive: 0.251 µM [inhibitor, full curve, poor fit]"
Cc1ccc([C@H]2C[C@H](O)[C@@H](n3cc(-c4ccc(F)cc4)nn3)CN2Cc2cccs2)cc1,–,"inconclusive: 7.91 µM [inhibitor, full curve]"
O=C(COC(=O)CCSc1ccccc1)NCc1ccccc1,inactive: -25%,–
CC(=O)c1cn(CC(=O)Nc2ccccc2F)c2ccccc12,–,"inconclusive: 15.8 µM [inhibitor, partial curve, poor fit]"
CSc1ncccc1C(=O)NNc1cc(Cl)ccc1Cl,–,"inconclusive: 10 µM [activator, partial curve, poor fit]"
COC(=O)c1c(NC(=O)c2cc(=O)c3cc(C)cc(C)c3o2)sc2c1CCC2,inactive: 3.77% [at 46.1 µM],–
Cc1nn(C)cc1C(=O)Nc1cc(Oc2ccc(Cl)cc2)cc([N+](=O)[O-])c1,inactive: -1.93%,–
COc1ccc2c(-c3cc4ccc(OCc5ccc(F)cc5)cc4oc3=O)cc(=O)oc2c1,–,"inconclusive: 6.31 µM [inhibitor, single point]"
COc1ccc(NC(=O)C2CCCN2C(=O)NC2CCCCC2)cc1 (stereo unspecified),–,"inconclusive: 1.26 µM [inhibitor, single point]"
CCC(C)C(NC(=O)/C(=C\c1ccccc1)NC(=O)c1ccc(OC)cc1)C(=O)O (stereo unspecified),inactive: -4.22%,–
C/C(=N/Nc1ncc(C(F)(F)F)cc1Cl)c1ccncc1,–,"inconclusive: 7.94 µM [activator, partial curve]"
Cc1cc(C(=O)CN2C(=O)NC3(CCCCC3C)C2=O)c(C)n1Cc1cccs1 (stereo unspecified),–,"inconclusive: 0.82 µM [activator, partial curve, poor fit]"

SMILES,"activity change, negative = inhibition",Potency
CC1CN(c2nnc(NC(=O)c3ccccc3)s2)CC(C)O1 (stereo unspecified),inactive: 1.91%,–
COc1cc(C(=O)Nc2cc(C)c(O)c(-c3nc4ccccc4s3)c2)cc(OC)c1OC,inactive: 5.82% [at 46.1 µM],–
O=S(=O)(c1ccc(-c2nnc(SCc3nnc(-c4ccccc4)o3)o2)cc1)N1CCCC1,inactive: 0.516%,–
COc1ccc(C(=O)Nc2ccc(-c3nc4ccccc4s3)c(Cl)c2)cc1Cl,–,"inconclusive: 35.5 µM [activator, single point]"
CCOC(=O)c1c(NC(=O)CSc2nnc(C)s2)sc2c1CCCCC2,inactive: 10.6%,–
Cc1ccc(Nc2ncnc(N)n2)cc1,inactive: 10.8% [at 46.1 µM],–
CCC(C)(C)n1nnnc1C(c1ccc(Cl)cc1)N1CCN(C)CC1 (stereo unspecified),–,"inconclusive: 25.1 µM [inhibitor, single point]"
COc1ccccc1OCCC(=O)OCC(=O)Nc1ccc2c(c1)OCCO2,inactive: -2.79% [at 46.1 µM],–
CNc1cccc2c1C(=O)c1ccccc1C2=O,–,"inconclusive: 3.16 µM [activator, partial curve]"
COc1ccc(NC(=O)Cn2c(=O)n(-c3ccc(OC)cc3)c(=O)c3sc4ccccc4c32)cc1,–,"inconclusive: 35.5 µM [inhibitor, single point]"
CCOC(=O)c1c(/N=C/c2ccc(C)cc2O)sc2c1CCC2,inactive: -12.6%,–
O=c1[nH]c(=O)n(C2CCCCCC2)c(O)c1C=NCc1ccc(F)cc1,–,"inconclusive: 10 µM [inhibitor, partial curve, poor fit]"
OCC1OC(n2cnc3c(NCc4ccccc4O)ncnc32)C(O)C1O (stereo unspecified),–,active: 2.24 µM
CCOc1ccc(NC(=O)CCNC(=O)c2ccco2)cc1,inactive: -18.3%,–
COc1ccc(C(=O)Nc2ccccc2C(=O)N/N=C/c2cccc3ccccc23)cc1,–,"inconclusive: 20.6 µM [inhibitor, single point]"
CN(C)c1ccc(C(CNC(=O)c2ccc(C#N)cc2)c2c[nH]c3ccccc23)cc1 (stereo unspecified),–,"inconclusive: 0.082 µM [inhibitor, full curve, poor fit]"
COc1ccc(/C(C)=N/N=C(N)N)c(O)c1,inactive: 28.2% [at 46.1 µM],–
COc1ccc(Oc2nc(SC)nc3ccccc23)cc1,–,"inconclusive: 35.5 µM [inhibitor, partial curve, poor fit]"
CSc1nc2ccc(S(N)(=O)=O)cc2s1,–,"inconclusive: 15.8 µM [activator, partial curve, poor fit]"
COc1cccc(NC(=O)COC(=O)c2ccccc2F)c1,inactive: -2.56%,–
CC(C)N(CCO)Cc1nc(C(c2ccccc2)c2ccccc2)no1,–,"inconclusive: 6.31 µM [inhibitor, partial curve, poor fit]"
CC(C)NC(=O)/C(=N\O)c1ccccc1,inactive: 14.6%,–
Cc1nc2cc(N=NC3=C(O)CCCC3=O)ccc2s1,–,"inconclusive: 15.8 µM [activator, partial curve, poor fit]"
CCC(NC(=O)C1C2C=CC(C2)C1C(=O)O)c1ccc(C)cc1 (stereo unspecified),–,"inconclusive: 35.5 µM [activator, partial curve, poor fit]"

SMILES,"activity change, negative = inhibition",Potency
O=C1/C(=C\c2ccc(O)c(O)c2)SC(=S)N1Cc1ccccc1,–,"inconclusive: 35.5 µM [inhibitor, single point]"
Cc1ccccc1C(OCCN(C(C)C)C(C)C)c1ccccc1 (stereo unspecified),–,active: 3.98 µM
Cc1ccc(C)c(N2CCN(C(=O)Cn3cnc4nc5c(cc4c3=O)CCCC5)CC2)c1,–,"inconclusive: 15.8 µM [inhibitor, single point]"
CCOC(=O)C1(CCCc2ccccc2)CCN(S(=O)(=O)N(C)C)CC1,–,"inconclusive: 15.8 µM [inhibitor, single point]"
CC(=O)c1ccc2c(c1)c1ccccc1n2CC(C)C,–,"inconclusive: 17.8 µM [inhibitor, single point]"
Cc1ccc(C)c(Cn2c(SCC(=O)NCc3ccccc3)nc3ccccc32)c1,inactive: -30.1% [at 46.1 µM],–
OCc1cnc(SCc2ccccc2)n1Cc1ccccc1,inactive: 6.55% [at 46.1 µM],–
Cc1[nH]n(-c2ccccc2)c(=O)c1C(=O)c1cccc(F)c1,–,"inconclusive: 13 µM [inhibitor, partial curve]"
Cn1c(=O)c2c(SCC(=O)NCC3CCCO3)nc(-c3ccccc3Cl)nc2n(C)c1=O (stereo unspecified),inactive: -0.0211%,–
Cc1ccc(C)c(NC(=O)c2oc(=O)c3ccccc3c2-c2ccccc2)c1,–,"inconclusive: 0.461 µM [inhibitor, partial curve, poor fit]"
Cc1nn(Cc2cccc(C(=O)NCC(C)C)c2)c(C)c1Br,–,"inconclusive: 14.6 µM [inhibitor, partial curve, poor fit]"
CCc1cccc2c(C(=S)N3CCOCC3)c[nH]c12,inactive: -10.4% [at 46.1 µM],–
Oc1ccc(-c2cnc3ccccc3n2)cc1,–,"inconclusive: 35.5 µM [inhibitor, single point]"
COc1ccc(OC)c(NC(=O)c2nnn(CC(=O)Nc3ccc(C(C)C)cc3)c2N)c1,–,"inconclusive: 11.2 µM [inhibitor, single point]"
O=C(NCC(c1ccco1)N1CCCCC1)c1cccc(S(=O)(=O)Nc2ccccc2Cl)c1 (stereo unspecified),–,"inconclusive: 7.08 µM [inhibitor, partial curve, poor fit]"
Cc1ccc(OCC(=O)N/N=C2\CC(=O)CC(C)(C)C2)c(Br)c1,–,"inconclusive: 0.501 µM [activator, full curve, poor fit]"
N=C1C(=O)OCC1c1ccccc1NC(=O)c1ccccc1 (stereo unspecified),–,"inconclusive: 3.26 µM [inhibitor, partial curve, poor fit]"
Cc1ccc(-c2noc(CC(c3ccccc3)c3ccccc3)n2)cc1,–,"inconclusive: 10.3 µM [inhibitor, partial curve, poor fit]"
CCN1CCc2nc(NC(=O)c3ccc4c(c3)OCCO4)sc2C1,–,"inconclusive: 8.2 µM [activator, partial curve]"
CCc1cccc(NC(=O)CCn2nc(C)cc2C)c1,inactive: 24.3% [at 46.1 µM],–
O=C(C(NS(=O)(=O)c1cccs1)c1ccccc1)N1CCN(c2ccccc2F)CC1 (stereo unspecified),–,active: 7.3 µM
Cc1ccc(C)c(Cn2nnc(C(=O)Nc3ccc4c(c3)OCCO4)c2N)c1,inactive: -1.11%,–
O=C(COc1ccc(Br)cc1Cl)NC1CCN(Cc2ccccc2)CC1,–,"inconclusive: 20 µM [inhibitor, single point]"

# Single records, as listed above:
# CC(=O)c1ccc2c(c1)c1ccccc1n2CC(C)C is listed with Potency: inconclusive: 17.8 µM [inhibitor, single point]
# Cc1ccc(C)c(Cn2c(SCC(=O)NCc3ccccc3)nc3ccccc32)c1 is listed with activity change, negative = inhibition: inactive: -30.1% [at 46.1 µM]
# COc1ccc(OC)c(NC(=O)c2nnn(CC(=O)Nc3ccc(C(C)C)cc3)c2N)c1 is listed with Potency: inconclusive: 11.2 µM [inhibitor, single point]
# CCc1cccc2c(C(=S)N3CCOCC3)c[nH]c12 is listed with activity change, negative = inhibition: inactive: -10.4% [at 46.1 µM]
